# Reference: PubChem BioAssay AID540256 (National Center for Advancing Translational Sciences (NCATS), 2011)
# Out of some 300,000 compounds screened, about 3,700 (1.2%) were called active. The inconclusive results got no clear call from the source; some entries with a clear call stand among them for comparison. Calls come from the whole dose curve; tested in HEK293 cells. Where the call is inconclusive, the potency comes from a doubtful curve fit.
# Experiment: qHTS for Inhibitors of binding or entry into cells for Lassa Virus; note: nearly all actives have a fitted effect of over 50% in size
# Conditions: Lassa virus pseudotype entry inhibition, cell reporter; activity change, negative = inhibition: at 37.9 µM (top of the series) unless noted
# % is set by controls: 0 for no effect and ±100 for the full control effect; potency is the fitted concentration of half-maximal effect.
SMILES,Potency,"activity change, negative = inhibition"
Cc1ccc(-c2nc3cc(Cl)ccc3o2)cc1,"inconclusive: 0.398 µM [activator, partial curve, poor fit]",
O=C(Nc1ccc(F)c(F)c1)c1ccc(F)c(S(=O)(=O)N2CCC3(CC2)OCCO3)c1,"inconclusive: 35.5 µM [inhibitor, partial curve, poor fit]",
CSc1ccc(CCNC(=O)CCc2c(C)nc3c4cccnc4nn3c2C)cc1,,inactive: 28.3% [at 46.1 µM]
COC(=O)CN1C(c2ccc(Cl)cc2)=Nc2ccc(Cl)cc2C1c1ccccc1 (stereo not drawn),,inactive: -29.9%
O=C(CN1CCN(S(=O)(=O)c2ccccc2)CC1)Nc1ccc(Cl)c(Cl)c1,"inconclusive: 29.1 µM [inhibitor, single point]",
COc1ccccc1NC(=O)C(NC(=O)c1ccc(C)cc1)c1ccccc1 (stereo not drawn),"inconclusive: 3.55 µM [inhibitor, partial curve, poor fit]",
CC(=O)N1c2ccc(S(=O)(=O)N3CCCCC3)cc2CC1C(=O)Nc1ccc(C)cc1 (stereo not drawn),"inconclusive: 25.1 µM [inhibitor, partial curve, poor fit]",
C/C(=N\NC(=O)c1ccncc1)c1cccc(NC(=O)c2ccc(Cl)s2)c1,,inactive: -13.7% [at 46.1 µM]
COc1ccc(CSc2nncn2C)cc1[N+](=O)[O-],,inactive: -2.09%
CC(C)(C)c1cc(NCCCn2ccnc2)n2ncc(-c3ccc(Cl)cc3)c2n1,"inconclusive: 6.51 µM [activator, partial curve, poor fit]",
Cc1c(N)cccc1-c1nc2ccccc2[nH]1,"inconclusive: 4.47 µM [inhibitor, full curve, poor fit]",
Cc1cccc(OCC(=O)Nc2cccc(-c3nc4ccccc4s3)c2)c1,,inactive: 2.14% [at 46.1 µM]
Nc1nc(SCC(=O)NCC2CCCO2)[nH]c(=O)c1NC(=O)c1ccc(F)c(F)c1 (stereo not drawn),,inactive: -14.2%
COC(=O)c1ccccc1NC(=O)CCc1c(C)nc2cc(-c3ccc(Cl)cc3)nn2c1C,,inactive: -3.91% [at 46.1 µM]
COc1ccc(CN2CCN(C(=O)Cc3ccccc3)CC2)c(OC)c1,,inactive: -3.49%
CC(CCc1ccccc1)NC(=O)c1ccc(C(=O)NC(C)CCc2ccccc2)cc1 (stereo not drawn),"inconclusive: 7.08 µM [inhibitor, full curve]",
Cc1cccc(N(C(=O)c2ccc(Cl)cc2)C2CS(=O)(=O)CC2OC(=O)c2ccc(Cl)cc2)c1 (stereo not drawn),"inconclusive: 29.1 µM [inhibitor, single point]",
Cc1ccc(-n2nc(CO)c(C(=O)NC(C)c3ccccc3)n2)cc1C (stereo not drawn),"inconclusive: 3.16 µM [inhibitor, full curve]",
Cc1cc(C)cc(OCc2ccc(C(=O)O)o2)c1,,inactive: 7.88%
CN(Cc1ccccc1)C(=O)COC(=O)/C=C/c1ccc2c(c1)OCO2,"inconclusive: 22.4 µM [inhibitor, single point]",
CCC(C(=O)NCCc1ccc(SC)cc1)n1nc(C)c2c(C)n(-c3ccc(C)cc3)nc2c1=O (stereo not drawn),"inconclusive: 10 µM [inhibitor, partial curve, poor fit]",
O=C(NCC(c1cccs1)N1CCOCC1)c1ccc(Cl)s1 (stereo not drawn),"inconclusive: 2.31 µM [inhibitor, partial curve, poor fit]",

# Three records drawn at random from the list so far:
SMILES,Potency,"activity change, negative = inhibition"
O=C(CN1CCN(S(=O)(=O)c2ccccc2)CC1)Nc1ccc(Cl)c(Cl)c1,"inconclusive: 29.1 µM [inhibitor, single point]",
CSc1ccc(CCNC(=O)CCc2c(C)nc3c4cccnc4nn3c2C)cc1,,inactive: 28.3% [at 46.1 µM]
Cc1cccc(N(C(=O)c2ccc(Cl)cc2)C2CS(=O)(=O)CC2OC(=O)c2ccc(Cl)cc2)c1 (stereo not drawn),"inconclusive: 29.1 µM [inhibitor, single point]",

# Later entries

SMILES,Potency,"activity change, negative = inhibition"
O=C(Nc1cccc([N+](=O)[O-])c1)N1CCCc2ccccc21,,inactive: 9.51% [at 46.1 µM]
COCc1cc(C)nc(SCC(=O)Nc2ccc(C)c(C)c2)c1C#N,"inconclusive: 11.2 µM [activator, partial curve, poor fit]",
CCN(CC)P(=O)(Nc1ccc(Br)cc1)c1c(C)nn(CCC#N)c1NC(=O)c1ccc(Cl)cc1 (stereo not drawn),"inconclusive: 6.31 µM [inhibitor, single point]",
Cc1ccccc1-c1cc(C(=O)Nc2sc(C(=O)OC(C)C)c(C)c2C#N)c2ccccc2n1,"inconclusive: 23.1 µM [inhibitor, single point]",
CCN1CCN(c2ncnc3c2cnn3-c2ccc(F)cc2)CC1,"inconclusive: 8.91 µM [activator, partial curve]",
CCOC(=O)c1c(C)[nH]c(C)c1S(=O)(=O)N1CCC(C(=O)Nc2ccc(OC)c(OC)c2)CC1,"inconclusive: 1.41 µM [activator, single point]",
CCCCCCn1c(O)c(C=NC2CCCCC2N)c(=O)[nH]c1=O (stereo not drawn),"inconclusive: 16.4 µM [inhibitor, partial curve, poor fit]",
CCOC(=O)/C=C1\SCC(=O)N1CC(=O)NC(C)C,,inactive: 26.4%
Cc1cc(NC(=O)CN2CCC(O)CC2)nc2c1c(=O)oc1ccccc12,"inconclusive: 1.41 µM [inhibitor, partial curve, poor fit]",
CSc1ncc2[nH]c(C(O)c3ccccc3)nc2n1 (stereo not drawn),"inconclusive: 22.4 µM [inhibitor, single point]",
S=c1sc2c(N3CCN(Cc4ccccc4)CC3)ncnc2n1-c1ccccc1,,inactive: -8.91%
COC(=O)CCC(=O)Nc1ccc(N=Nc2ccccc2)cc1,"inconclusive: 0.398 µM [activator, full curve, poor fit]",
C/C(CCC(C)C)=N\NC(=O)COc1ccccc1-c1ccccc1,"inconclusive: 11.2 µM [inhibitor, single point]",
O=C(Nc1ccc(C(F)(F)F)cn1)Nc1cccs1,"inconclusive: 35.5 µM [inhibitor, single point]",
N#Cc1c2c(c(NCc3ccco3)n3c1nc1ccccc13)CCC2,,inactive: 7.55%
COc1ccc(S(=O)(=O)N(C)c2ccc(C(=O)N3CCCCC3)cc2)cc1,"inconclusive: 35.5 µM [inhibitor, single point]",
Cc1ccc(OCCC(=O)Nc2ccc(S(=O)(=O)Nc3cc(C)nc(C)n3)cc2)cc1,"inconclusive: 8.91 µM [inhibitor, partial curve, poor fit]",
CCn1c(=O)n(CC2CCC(C(=O)NC(C)C)CC2)c(=O)c2sccc21 (stereo not drawn),,inactive: 0.554% [at 46.1 µM]
CCOC(=O)Cc1nnc(NC(=O)C(CC)Sc2nnc3c4ccccc4n(C)c3n2)s1 (stereo not drawn),"inconclusive: 29.1 µM [activator, single point]",
COCC(C)Nc1ncnc2c1cnn2-c1cccc(Cl)c1 (stereo not drawn),"inconclusive: 12.6 µM [activator, single point]",
CN(C)S(=O)(=O)N1CCN(CC(O)COc2ccc(C(=O)c3ccccc3)cc2)CC1 (stereo not drawn),"inconclusive: 8.91 µM [inhibitor, partial curve, poor fit]",
